Measurements published in PMC7819943, “Rice protein-binding microarrays: a tool to detect cis-acting elements near promoter regions in rice”.
This is one part of the list.

By UniProt entry, the sequences of proteins in these tests, tags left out.
UniProt Q0JBA9, entry or part of it: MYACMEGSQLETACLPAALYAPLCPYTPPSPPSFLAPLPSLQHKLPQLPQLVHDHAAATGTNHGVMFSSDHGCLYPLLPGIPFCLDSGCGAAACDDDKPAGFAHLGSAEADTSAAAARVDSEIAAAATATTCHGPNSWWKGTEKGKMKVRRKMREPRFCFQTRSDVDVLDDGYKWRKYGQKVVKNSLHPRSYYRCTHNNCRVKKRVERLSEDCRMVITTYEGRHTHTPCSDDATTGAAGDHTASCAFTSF

Target: OsWRKY34 (Oryza sativa, UniProt Q0JBA9 1-250)
Test: protein-binding microarray (RPBM); PBS, 2% BSA, 51.3 ng/ul salmon testes DNA, 50 uM zinc acetate, 200 nM TF, 25 C, 1 h; high values mean tight binding
Conditions: protein: recombinant; tags: N-terminal polyhistidine and DsRed monomer fusion (pET32a); label: CyDye5-dUTP incorporated in the synthesized complementary strand; 3' TTTTT single-stranded linker to array surface; dsDNA, one strand shown
Summary of the method: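 For the binding signal, per-feature fluorescence intensity was read in arbitrary units on an Axon 4000B scanner. Before scanning, a 2% BSA-blocked custom Agilent array made double-stranded with Cy5-dUTP was washed after 1 h at 25 °C with 200 nM protein and 50 µM zinc acetate. The proteins were Ni–NTA-purified transcription factors with N-terminal polyhistidine and DsRed fusions, expressed in E. coli BL21-CodonPlus.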

| Sequence | binding signal |
| --- | --- |
| GATCAGGTCCTTCTTAACTTTGCCATCTAGCTTTATGGACCGGAGTCACCTAGTGCAG | 8060 fluorescence intensity (a.u.) |
| GCATGACGTCGCCCGTGTCACTTCGCTCTGAGAGCCCTACCGGAGTCACCTAGTGCAG | 9580 fluorescence intensity (a.u.) |
| AACGCACATGTAAGTTACCACCTCTTCTTCTTCATCTACTCGGAGTCACCTAGTGCAG | 9400 fluorescence intensity (a.u.) |
| CATTTTGTAATTTGCCCTTGAACATGTGTTGTTACAATTTCGGAGTCACCTAGTGCAG | 8980 fluorescence intensity (a.u.) |
| CTATTTTGCTATCTAGGTCATGCATGTTATTTTTTCTTCTCGGAGTCACCTAGTGCAG | 10300 fluorescence intensity (a.u.) |
| CATCGCTCCATCTCATTTTCATTGTTCATCTGTTTGCATTCGGAGTCACCTAGTGCAG | 8730 fluorescence intensity (a.u.) |
| ATATCTCCCTTTTTTTTTTGCGGTTTCGCCATGGCTTTCTCGGAGTCACCTAGTGCAG | 10600 fluorescence intensity (a.u.) |
| GGTTTTGTTAGTTGAGGGACGTCTGGTATCTGGTTTCAGGCGGAGTCACCTAGTGCAG | 8800 fluorescence intensity (a.u.) |
| GCAATATGTTTGAGATCCTAAGAAATCCGTTGACCGGATTCGGAGTCACCTAGTGCAG | 12300 fluorescence intensity (a.u.) |
| AACTCCAAATGTACAAAGCACCCATGATCCAGCCAGTCCACGGAGTCACCTAGTGCAG | 8540 fluorescence intensity (a.u.) |
| TGTGATTTTTCTCGGGTCGCTACTGTTCATTGCGCGCCAGCGGAGTCACCTAGTGCAG | 12000 fluorescence intensity (a.u.) |
| AGATCTCTACCCACGATCTTTGTGATTTCCTTGTGAGATTCGGAGTCACCTAGTGCAG | 10700 fluorescence intensity (a.u.) |
| TACGTGTCTCCAGCGCCGTGGGGTGGGAGTGGGATACAGTCGGAGTCACCTAGTGCAG | 11000 fluorescence intensity (a.u.) |
| GACCTATTTTCGCGATTTTCCCCGGTTGACCACTACTTTTCGGAGTCACCTAGTGCAG | 13100 fluorescence intensity (a.u.) |
| AAAGGCACGAACCTCTTTTTCTCGTCGTCCATGGCGATAGCGGAGTCACCTAGTGCAG | 8480 fluorescence intensity (a.u.) |
| CCCACCTCCACTACTCCATTTACTTTGCTACTCCCTTCTCCGGAGTCACCTAGTGCAG | 8840 fluorescence intensity (a.u.) |
| ATTTCTTACGTTGTTGCAGCTTTGTTTTTTTTGCTTATTTCGGAGTCACCTAGTGCAG | 14900 fluorescence intensity (a.u.) |
| CCAACAAGTTGACCTTGACCACATGCCTGCGCCTTTGACCCGGAGTCACCTAGTGCAG | 11000 fluorescence intensity (a.u.) |
| TCTCCCTCAGTTACTGCCTTGCTCCCCAACCCCAGGAGCACGGAGTCACCTAGTGCAG | 9230 fluorescence intensity (a.u.) |
| TTTGTTTTCTACTTAATTGACCATACTCCAGTCCTACTCCCGGAGTCACCTAGTGCAG | 8730 fluorescence intensity (a.u.) |
| TGTTTCTTCTCCTCCTACTACTACTACTACTACTTCACATCGGAGTCACCTAGTGCAG | 8920 fluorescence intensity (a.u.) |

| Sequence | binding signal |
| --- | --- |
| CATGGTTCATTATGCAACTTGGGTAATAGTTCCTTCTTTTCGGAGTCACCTAGTGCAG | 8200 fluorescence intensity (a.u.) |
| TCCTTGCTCCATCAGTATTACACCACCCAACACAAGCTCACGGAGTCACCTAGTGCAG | 8870 fluorescence intensity (a.u.) |
| TTGTCTTTTGTTCTCAGAGCTCCATTGGTTGACTTAATAACGGAGTCACCTAGTGCAG | 10500 fluorescence intensity (a.u.) |
| AAAGCAATCATTCCCCTGTTTTGCTGCCAATTGCAGCTTTCGGAGTCACCTAGTGCAG | 8900 fluorescence intensity (a.u.) |
| GCATCGCATCGCATCCCCAAATCTCGTTTCCGTCCAAGTCCGGAGTCACCTAGTGCAG | 8520 fluorescence intensity (a.u.) |
| GGCGAAGGCATGTTCCCAAGTTATACTCACTTGTTTTTCACGGAGTCACCTAGTGCAG | 9130 fluorescence intensity (a.u.) |
| AGTCACACTCCGGCCCGCACTTACGTCATAATCCCGTTCCCGGAGTCACCTAGTGCAG | 13400 fluorescence intensity (a.u.) |
| GATCGTGAGTCGTGACACTACTAATTCCATATTACCTCACCGGAGTCACCTAGTGCAG | 8170 fluorescence intensity (a.u.) |
| CACGTCGTACCCACTCGTCCTCGGCTCCTCGCGCGGTCACCGGAGTCACCTAGTGCAG | 11300 fluorescence intensity (a.u.) |
| TGGAGCCACACGTCGGTCAGTTCGTCACCCACACGCTACACGGAGTCACCTAGTGCAG | 8240 fluorescence intensity (a.u.) |
| AATTGAAACCTAATCGCATATTTGCATTGCATTTTTTCTGCGGAGTCACCTAGTGCAG | 8740 fluorescence intensity (a.u.) |
| TCACCTTTATCGATCTAAAAAAGCTGTGTTTATTTTTACACGGAGTCACCTAGTGCAG | 8340 fluorescence intensity (a.u.) |
| CCGCCGCCTCACTCTCCGTCTCCGACGCCGCCGCTAAGCTCGGAGTCACCTAGTGCAG | 8520 fluorescence intensity (a.u.) |
| CCGTTTTTAATATATGACACCGTTAATTTTTTTCACGTTTCGGAGTCACCTAGTGCAG | 8930 fluorescence intensity (a.u.) |
| GATTATCTCTTCTTCACCTGCAATGCTAATACCTTCCACTCGGAGTCACCTAGTGCAG | 8770 fluorescence intensity (a.u.) |
| TATGTTTGTTATGTTGTGTGCCATCGAGCAGATGATAAATCGGAGTCACCTAGTGCAG | 8300 fluorescence intensity (a.u.) |
| GGACAAGTAAATTGTATGTCAGCCACACTTGCTTATGTGACGGAGTCACCTAGTGCAG | 8680 fluorescence intensity (a.u.) |
| TCATCCCAGCATTGTTGTTTGCCTGAATTAGTTGTAGAAACGGAGTCACCTAGTGCAG | 8630 fluorescence intensity (a.u.) |
| TCCTCCCTCCCCTCCACCTCGCCGCCGCCGCCGCCGCCGCCGGAGTCACCTAGTGCAG | 8760 fluorescence intensity (a.u.) |
| CTTGCTCATCTACCATTTGCCTCTTCAGCAACAGCTTAGACGGAGTCACCTAGTGCAG | 12600 fluorescence intensity (a.u.) |
| GTTAGTCCCTAGTTCCCAAATACCCCTTAGTCGAGCAGTTCGGAGTCACCTAGTGCAG | 8340 fluorescence intensity (a.u.) |

Quoted at random: 2 records from the list.

| Sequence | binding signal |
| --- | --- |
| GATCGTGAGTCGTGACACTACTAATTCCATATTACCTCACCGGAGTCACCTAGTGCAG | 8170 fluorescence intensity (a.u.) |
| CCGTTTTTAATATATGACACCGTTAATTTTTTTCACGTTTCGGAGTCACCTAGTGCAG | 8930 fluorescence intensity (a.u.) |
